Publication PMC7819943, “Rice protein-binding microarrays: a tool to detect cis-acting elements near promoter regions in rice”
Some of the results follow.

Sequences of proteins named here, by UniProt entry; tags and fusion partners are left off.
UniProt Q0JBA9, entry or part of it: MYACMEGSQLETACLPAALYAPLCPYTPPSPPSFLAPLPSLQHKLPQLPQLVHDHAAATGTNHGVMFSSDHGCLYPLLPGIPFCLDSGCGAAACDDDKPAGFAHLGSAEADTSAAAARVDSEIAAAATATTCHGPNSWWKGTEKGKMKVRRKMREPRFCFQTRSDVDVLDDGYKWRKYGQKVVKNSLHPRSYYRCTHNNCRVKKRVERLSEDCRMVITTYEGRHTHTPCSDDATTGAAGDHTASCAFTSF

Target: OsWRKY34 (Oryza sativa, UniProt Q0JBA9 1-250)
Test: protein-binding microarray (RPBM); PBS, 2% BSA, 51.3 ng/ul salmon testes DNA, 50 uM zinc acetate, 200 nM TF, 25 C, 1 h; high values mean tight binding
Conditions: protein: recombinant; tags: N-terminal polyhistidine and DsRed monomer fusion (pET32a); label: CyDye5-dUTP incorporated in the synthesized complementary strand; 3' TTTTT single-stranded linker to array surface; dsDNA, one strand shown
Summary of the method: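 Per-feature fluorescence intensity (arbitrary units), read on an Axon 4000B scanner, is the binding signal. Transcription factors carrying an N-terminal polyhistidine tag and DsRed fusion were expressed in E. coli BL21-CodonPlus and purified on Ni–NTA. A custom Agilent array, made double-stranded by primer extension with Cy5-dUTP and blocked with 2% BSA, was incubated with 200 nM protein in PBS, 2% BSA, salmon testes DNA and 50 µM zinc acetate at 25 °C for 1 h and then washed.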

Row | Sequence | binding signal
1 | GGCTAGATTTTCGCGATTTTTTTTAGTTTCGATCCCGGTTCGGAGTCACCTAGTGCAG | 10900 fluorescence intensity (a.u.)
2 | GGCCTCATTCTGGGATCGTTTTATGGTGGGGTTATCGTTACGGAGTCACCTAGTGCAG | 20600 fluorescence intensity (a.u.)
3 | AGGTTTTGGTTTGGTCTTTTTTGTGAACAGCCATGTCGTCCGGAGTCACCTAGTGCAG | 9310 fluorescence intensity (a.u.)
4 | TGCTGCTGGTTACTTGTATTAATACATTATAGAAAATGAGCGGAGTCACCTAGTGCAG | 8070 fluorescence intensity (a.u.)
5 | CTCCAAGCTTTTTCCCCTTTGCAGTTGTGCCCTTATCATCCGGAGTCACCTAGTGCAG | 13800 fluorescence intensity (a.u.)
6 | TTGCTATTGCCGTCTTGTCTACTGTTATAGCATTGATTATCGGAGTCACCTAGTGCAG | 9520 fluorescence intensity (a.u.)
7 | ACAATTGAAGCAAACTAACAACATCCGATCAGTTTTCGTCCGGAGTCACCTAGTGCAG | 8590 fluorescence intensity (a.u.)
8 | CCGCTCCGCTCCGTCGGCTGCTGTACCAGCCATCACTGCTCGGAGTCACCTAGTGCAG | 9000 fluorescence intensity (a.u.)
9 | ACCCTTACATTACTTCCTTAAACCATTAACATCTGAATTCCGGAGTCACCTAGTGCAG | 11100 fluorescence intensity (a.u.)
10 | ACCGCTTTTGAACCGTCAGCGTTGCCGCATTCGCACCGTCCGGAGTCACCTAGTGCAG | 8190 fluorescence intensity (a.u.)
11 | AGGTTTTAGTAGTCTCTTTTTTTTGGGTTGCGTGCATTTTCGGAGTCACCTAGTGCAG | 10200 fluorescence intensity (a.u.)
12 | TAACTTTTTTTTACATGTATTTTTCTTAACTTGGACATAACGGAGTCACCTAGTGCAG | 11200 fluorescence intensity (a.u.)
13 | TCAATTCCTATATTTTTTCTATTCCTGTGTTTTTCCTATCCGGAGTCACCTAGTGCAG | 8090 fluorescence intensity (a.u.)
14 | ATTTTGCTCGTTAGCTTGTACATACGCAACTTAATTATCTCGGAGTCACCTAGTGCAG | 8620 fluorescence intensity (a.u.)
15 | CATTTCGTTGATCCCACTCATATCGCAGCTGCTCTAGCAACGGAGTCACCTAGTGCAG | 8330 fluorescence intensity (a.u.)
16 | GCGGCAATCATCTAACCGTCCATCCCGTGATCGAGCGCATCGGAGTCACCTAGTGCAG | 10100 fluorescence intensity (a.u.)
17 | CCCCGGTTGGCCACTACTTTTGCGATTTTCCATAAAAATACGGAGTCACCTAGTGCAG | 8560 fluorescence intensity (a.u.)
18 | ATTTCTTTCCATCCATAATTACTAGGCTGCATTGCCTCTTCGGAGTCACCTAGTGCAG | 8720 fluorescence intensity (a.u.)
19 | GTCGATTTGGGACGCGACATTTTCTTACTCCCTGAGATCTCGGAGTCACCTAGTGCAG | 10400 fluorescence intensity (a.u.)
20 | ACCCCACATGTCAGTACCAAAGGTTCACCCATTCTCCGTACGGAGTCACCTAGTGCAG | 9020 fluorescence intensity (a.u.)
21 | CTTGCGATCACCCTCTCACCACCGCTACAGATCACCATTGCGGAGTCACCTAGTGCAG | 9510 fluorescence intensity (a.u.)
22 | ATCATGTCTTTCAGTCACCAATTTGTCACTAGTGGGCCCACGGAGTCACCTAGTGCAG | 8130 fluorescence intensity (a.u.)
23 | CTCTCTCCACCCTCAGCCGCCACACTCCCATCCATTCTCCCGGAGTCACCTAGTGCAG | 9060 fluorescence intensity (a.u.)
24 | GCTGTCTCGCACTCGCCGCCGCCGCCGTCGCCGCGCCTCTCGGAGTCACCTAGTGCAG | 8340 fluorescence intensity (a.u.)
25 | ACACCACCACTAGGTTCTTTTTCATTGTATGTAGGAAGCACGGAGTCACCTAGTGCAG | 8550 fluorescence intensity (a.u.)
26 | CTCGTGTCCTATTTTTACCGTTTATACAACTATTAACTTACGGAGTCACCTAGTGCAG | 11300 fluorescence intensity (a.u.)
27 | TTCAATTTCTTGATGTGTAAGTACTACTACTTGAATTATTCGGAGTCACCTAGTGCAG | 8240 fluorescence intensity (a.u.)

Row | Sequence | binding signal
28 | GGTATTTATAGACTCGGTTTTTACATGTACATGAAACCCTCGGAGTCACCTAGTGCAG | 9170 fluorescence intensity (a.u.)
29 | TCCAGGCAGTTCTACCTCGATTACTTTATGCTGCTGCACCCGGAGTCACCTAGTGCAG | 9590 fluorescence intensity (a.u.)
30 | GTCTCTCTTCTCTCTCTCTCTCTCTCTCTCTCTCTCGTCTCGGAGTCACCTAGTGCAG | 8040 fluorescence intensity (a.u.)
31 | GTAGTTCGAGTTTAAATTTTTTTGTGGTTGGTTGTATCGTCGGAGTCACCTAGTGCAG | 8720 fluorescence intensity (a.u.)
32 | CTGTTACTCTATGTGGTTTGAGCAGTGTCGTCTGTTCATACGGAGTCACCTAGTGCAG | 12900 fluorescence intensity (a.u.)
33 | CTCTAGCCTCTCGCGAACCTCTCGATCTTCTCGCCGCCATCGGAGTCACCTAGTGCAG | 10100 fluorescence intensity (a.u.)
34 | GATTCGGTAGTGGGCCTAGGCCTGGGCATGGAGGGTGGGCCGGAGTCACCTAGTGCAG | 10900 fluorescence intensity (a.u.)
35 | TCCTGTCTATGTTTCTCTCTCTCCATAGCACTTACTCTTTCGGAGTCACCTAGTGCAG | 13400 fluorescence intensity (a.u.)
36 | AAACACATTCACATTCTCTCTCTCTCTCTCTCTCTCTCCTCGGAGTCACCTAGTGCAG | 8420 fluorescence intensity (a.u.)
37 | AATATCCATTCTCACGAGCTGTTTGTTGTAGCTTTCTGTACGGAGTCACCTAGTGCAG | 11400 fluorescence intensity (a.u.)
38 | GATATAATGCGGTCAGAGTTCAGGACTTGACCAAGTTCGTCGGAGTCACCTAGTGCAG | 8330 fluorescence intensity (a.u.)
39 | ATCTTCTATTCACGGCTTGCCATCTGTGCACTGTAATTTTCGGAGTCACCTAGTGCAG | 9850 fluorescence intensity (a.u.)
40 | TTCTTTTTTGGACGCCATCATCATCAACATTGCCGCTGCACGGAGTCACCTAGTGCAG | 11600 fluorescence intensity (a.u.)
41 | AGTCCCACCACGCCACGAGAAATTTCTACGCCCATGTCAGCGGAGTCACCTAGTGCAG | 8030 fluorescence intensity (a.u.)
42 | CTCCGCGATCACCAAATCCGCCGTCGCACCGTCTCCACTCCGGAGTCACCTAGTGCAG | 9870 fluorescence intensity (a.u.)
43 | ACCCAGTGACGTGGCCCTCATAACCTTCGCCCATAAATACCGGAGTCACCTAGTGCAG | 8400 fluorescence intensity (a.u.)
44 | CTCTATAGCTGTTGTTAGAGTTGTTATTCCTTTCACTTGTCGGAGTCACCTAGTGCAG | 8130 fluorescence intensity (a.u.)
45 | CTGTTCCATTTTATCACTTCTTTCTGCACTTCTTTTCTTTCGGAGTCACCTAGTGCAG | 15800 fluorescence intensity (a.u.)
46 | TGTAGTCCGCTTCTTTTCTCTCCTTATTTATCTTCTTAAACGGAGTCACCTAGTGCAG | 8580 fluorescence intensity (a.u.)
47 | GGTGGGGTTCGGTTTCGTGCCGCCATTTTCCCCAATTTGGCGGAGTCACCTAGTGCAG | 8870 fluorescence intensity (a.u.)
48 | AGAGGGAGTATTATGTTTATGCTTTTAATTTTTCACTTTGCGGAGTCACCTAGTGCAG | 9150 fluorescence intensity (a.u.)
49 | CTACGTTTCTGCTTCCTTCAGTTTGTGCTGTCGTATTTATCGGAGTCACCTAGTGCAG | 12800 fluorescence intensity (a.u.)
50 | GTATGTCTATCTTCTTTCGTTTTTTGACATTTACATATTTCGGAGTCACCTAGTGCAG | 11800 fluorescence intensity (a.u.)
51 | GGCACGGTTTGAACGCATTACCCATTCCCCGTTTGACTTCCGGAGTCACCTAGTGCAG | 12800 fluorescence intensity (a.u.)
52 | GGACGGACGAAACAGCGTGACATTACATTTTTTTCTCTCTCGGAGTCACCTAGTGCAG | 8100 fluorescence intensity (a.u.)
53 | ATGAAACTTGTTTGGTGTAGTAGATGTTGCTAAATTTTTCCGGAGTCACCTAGTGCAG | 8630 fluorescence intensity (a.u.)
54 | AGAAACGTACTCACTCTTGCCTGCATCGATCCTTGAGTTTCGGAGTCACCTAGTGCAG | 9930 fluorescence intensity (a.u.)

Retrieved one by one from the entries so far, three records:
Row | Sequence | binding signal
36 | AAACACATTCACATTCTCTCTCTCTCTCTCTCTCTCTCCTCGGAGTCACCTAGTGCAG | 8420 fluorescence intensity (a.u.)
53 | ATGAAACTTGTTTGGTGTAGTAGATGTTGCTAAATTTTTCCGGAGTCACCTAGTGCAG | 8630 fluorescence intensity (a.u.)
45 | CTGTTCCATTTTATCACTTCTTTCTGCACTTCTTTTCTTTCGGAGTCACCTAGTGCAG | 15800 fluorescence intensity (a.u.)
